61 compounds from PubChem BioAssay AID1508615 (Milbrandt Lab, Department of Genetics, Washington …, 2020) can be followed below.

By UniProt entry, the sequences of proteins in these tests, tags left out. Where a name states a change or a piece, a line headed by the entry shows the natural chain unless it says otherwise.
UniProt Q6SZW1: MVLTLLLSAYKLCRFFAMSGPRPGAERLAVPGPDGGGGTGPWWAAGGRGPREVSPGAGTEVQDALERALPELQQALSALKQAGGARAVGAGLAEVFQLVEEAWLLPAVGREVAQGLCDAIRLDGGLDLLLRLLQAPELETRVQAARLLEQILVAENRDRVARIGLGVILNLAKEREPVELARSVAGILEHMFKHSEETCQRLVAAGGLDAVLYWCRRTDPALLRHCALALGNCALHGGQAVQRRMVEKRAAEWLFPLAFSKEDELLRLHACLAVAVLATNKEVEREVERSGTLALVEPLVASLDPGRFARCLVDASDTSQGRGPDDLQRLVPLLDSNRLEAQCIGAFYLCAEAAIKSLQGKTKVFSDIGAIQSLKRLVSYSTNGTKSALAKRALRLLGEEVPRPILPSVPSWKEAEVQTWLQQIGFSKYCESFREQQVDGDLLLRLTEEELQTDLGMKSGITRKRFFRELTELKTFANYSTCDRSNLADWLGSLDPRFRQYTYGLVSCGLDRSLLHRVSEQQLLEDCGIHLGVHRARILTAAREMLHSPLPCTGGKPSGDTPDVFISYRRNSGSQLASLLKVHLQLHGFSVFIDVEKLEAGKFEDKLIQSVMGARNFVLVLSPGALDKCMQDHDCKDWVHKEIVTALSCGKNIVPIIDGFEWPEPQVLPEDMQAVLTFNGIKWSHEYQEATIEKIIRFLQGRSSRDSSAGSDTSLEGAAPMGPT

Each structure is given as a SMILES string. Hit rate of the full screen: of about 1,600 compounds, about 20 (1%) were called active.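 How the source made its calls: active means ratio of uncleaved NAD to its breakdown product ADP-ribose above 4, meaning the enzyme was inhibited; inactive means the rest.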 This is one part of the list.

For this test, the target named is NAD(+) hydrolase SARM1 (Homo sapiens) (UniProt Q6SZW1). As to the kind of experiment: inhibition of SAM-TIR NAD hydrolysis to ADPR – cell lysate, HPLC readout, primary screen (AID 1508615).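 Further: substrate NAD at 5 µM with 60 min at 37 °C.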 To be noted: HEK293T SAM-TIR lysate, NAD/ADPR ratio by HPLC; at 5 µM; active compounds read high.
Consider `O=C1C(Cl)=C(NCCc2ccccc2)C(=O)c2ccccc21`, for which the NAD/ADPR ratio is inactive: 3.

Take `O=C(O)c1ccc(OCCOc2ccccc2)cc1`: the NAD/ADPR ratio was inactive: 3.

Regarding `CNc1nc(SC)n(C)c(=O)c1N=O`, the NAD/ADPR ratio was inactive: 3. In the case of `COc1ccc(Br)c2c1C(=O)CC2`, the NAD/ADPR ratio was inactive: 3. Regarding `CC(C)c1cc(C(C)C)n2nc(N)nc2n1`, the NAD/ADPR ratio is inactive: 3. To `CO/N=C1/C=C(C)C(=O)C(C)=C1C` belongs inactive: 3; to `NC(=O)C1=C[C@H]2[C@H]3C=C[C@@]2(O)C(=O)O[C@@H]3O1`, inactive: 3; to `Cc1nc(Br)c(Br)c(C)c1Br`, inactive: 3. Consider `O=C(O)C(=O)Nc1ncn[nH]1`, for which the NAD/ADPR ratio is inactive: 3.

With `O=c1[nH]cnc(CN2CCCCC2)c1O`, the NAD/ADPR ratio is inactive: 3. To `c1ccc(CSc2nnc3c4ccccc4c4ccccc4c3n2)cc1` belongs inactive: 3; to `OC1(Cc2ccccc2)CCNCC1`, inactive: 3. As for `Cc1cccnc1NC(=O)c1csnn1`, the NAD/ADPR ratio was inactive: 3.

With `CN1CCC=C(C(=O)N2c3ccccc3Sc3ccc(Cl)cc32)C1`, the NAD/ADPR ratio is inactive: 3.

As for `CC(C)(C)NC(=S)NC(C)(C)C`, the NAD/ADPR ratio was inactive: 3. For the compound `NC(=O)Nc1n[nH]c(-c2ccccc2)n1`, the NAD/ADPR ratio was inactive: 3. In the case of `CC1=CC(=O)CC(C)(C)C1(O)/C=C/C(C)=C/C(=O)O` (stereo unspecified), the NAD/ADPR ratio was inactive: 3. Regarding `N#C/C(=C\c1cc(O)c(O)c(O)c1)C(N)=O`, the NAD/ADPR ratio is inactive: 3. As to `Cc1cccc(NC2=C(C#N)C(=O)NC3(CCCC3)S2)c1`, the NAD/ADPR ratio is inactive: 3.

On to `Clc1nc(Cl)nc(-c2cn(-c3ccccc3)c3ccccc23)n1`, for which the NAD/ADPR ratio was inactive: 3. The result for `c1ccc(-c2nc(-c3ccccn3)nc(-c3ccccn3)n2)nc1` reads inactive: 3; that for `Nc1ccc(Cn2ccc3c4c(N)nc(N)nc4ccc32)cc1`, inactive: 3; that for `Brc1ccc(N=Nc2ccc3ccccc3n2)cc1`, inactive: 3. For `O=C(COc1cc(Cl)c(Cl)cc1Cl)Nc1ccc([N+](=O)[O-])cc1Cl`, the NAD/ADPR ratio is inactive: 3. For the compound `CCCNC(=O)c1ccc(S(N)(=O)=O)cc1`, the NAD/ADPR ratio is inactive: 3. For the compound `Cc1ccc(Cl)cc1NC(=O)N(C)CCO`, the NAD/ADPR ratio was inactive: 3. With `Cn1ccc(=Nc2ccc(NC(=O)c3ccc(N=c4ccn(C)c5ccc([N+](=O)[O-])cc45)cc3)cc2)cc1`, the NAD/ADPR ratio was inactive: 3.

Turning to `NC(=O)/C(=C\c1ccncc1)c1cccc2ccccc12`, the NAD/ADPR ratio is inactive: 3.

On to `CCOC(=O)Cc1c[nH]c(=S)[nH]c1=O`, for which the NAD/ADPR ratio is inactive: 3. With `O=C1c2cccc(Sc3ccccc3)c2C(=O)c2c(Sc3ccccc3)cccc21`, the NAD/ADPR ratio is inactive: 3. The result for `Cc1cc(=O)[nH]c(N/N=C2/CCCCC2C)n1` (stereo unspecified) reads inactive: 3. To `CC1=CC2=C(C=O)C(=O)[C@](C)(O)[C@@H](O)C2=CO1` belongs inactive: 3; to `O=C(OCC1CCC=CO1)C1CCC=CO1` (stereo unspecified), inactive: 3; to `Cc1cc(=S)[nH]c(=S)[nH]1`, inactive: 3. To `Nc1ncnc2c1ncn2C1C=C(CO)C(O)C1O` (stereo unspecified) belongs inactive: 3; to `S=C(Nc1ccccc1)Nc1nccs1`, inactive: 3; to `CC1OC(Oc2c(-c3cc(O)c(O)c(O)c3)oc3cc(O)cc(O)c3c2=O)C(O)C(O)C1O` (stereo unspecified), inactive: 3. Turning to `CCOC(=O)CC1(C)NC(C(=O)O)C(C)(C)S1` (stereo unspecified), the NAD/ADPR ratio was inactive: 3. In the case of `CS(=O)(=O)Nc1nc2ccccc2[nH]1`, the NAD/ADPR ratio is inactive: 3. Take `Cc1c(N2CCCC2)cc2c(c1NC(=O)c1ccccc1Cl)C(C)(C)CC2(C)C`: the NAD/ADPR ratio was inactive: 3. The result for `Nc1ccc(Br)cc1Br` reads inactive: 3; that for `O=c1cc(-c2cccnc2)oc2c1ccc1ccccc12`, inactive: 3; that for `CCCCOc1ccc(Nc2cc(Cl)ccc2C(=O)O)cn1`, inactive: 3.

Regarding `CCOC(=O)C(C#N)C(=N)C1C(=O)OC2CCCCC21` (stereo unspecified), the NAD/ADPR ratio is inactive: 3. The result for `Nc1[nH]nc2nc(-c3ccccc3)[nH]c(=O)c12` reads inactive: 3; that for `Nc1ncnc2c1ncn2C1OC(COS(N)(=O)=O)C(O)C1O` (stereo unspecified), inactive: 3; that for `S=c1[nH]ccn1-c1ccccc1Cl`, inactive: 3. With `CN1CCc2ccccc2C1Cc1ccccc1NC(=O)c1sc2ccccc2c1Cl` (stereo unspecified), the NAD/ADPR ratio is inactive: 3. As to `NS(=O)(=O)c1ccc(NC2(C(=O)O)CCCC2)cc1`, the NAD/ADPR ratio is inactive: 3. `CCCCSc1ncnc2[nH]ncc12`: the NAD/ADPR ratio was inactive: 3. As for `COCC(=O)OC1CCn2c1nc1c2C(=O)C(C)=C(NC(C)=O)C1=O` (stereo unspecified), the NAD/ADPR ratio is inactive: 3. For `CC(=O)Nc1nc(C)c(CCCOc2ccc([N+](=O)[O-])cc2)c(=O)[nH]1`, the NAD/ADPR ratio was inactive: 3.

For `O=C1COc2cccnc2N1`, the NAD/ADPR ratio is inactive: 3.

Turning to `CC(=O)CC(=O)Nc1ccc2ccccc2c1`, the NAD/ADPR ratio was inactive: 3. As for `CCCCc1c(C)[nH]c(=S)[nH]c1=O`, the NAD/ADPR ratio was inactive: 3. The result for `CN1CN(C)C(c2ccncc2)=C1c1ccncc1` reads inactive: 3; that for `CC(=O)C1CCC2C3CCC4=CC(=O)CC[C@]4(C)[C@@]3(F)C(O)C[C@]12C` (stereo partly specified), inactive: 3.

Consider `Cc1cc(-n2cnc3c(=O)[nH]cnc32)ccc1N`, for which the NAD/ADPR ratio was inactive: 3. Turning to `Cc1cc(/C=C2\SC(=S)NC2=O)cc(C)c1O`, the NAD/ADPR ratio was inactive: 3. The result for `O=C(O)c1ccc(NCc2nc3ccccc3[nH]2)cc1` reads inactive: 3; that for `CCC1(C(=O)OC)CCc2c(cc(OC)c3ccccc23)C1=O` (stereo unspecified), inactive: 3.
